Results from publication doi:10.1101/2024.09.30.615192.
These are yes or no findings as the source states them, for the method shown. In cells and extracts the contact can be indirect. Here binding means that the protein was enriched with, or labelled near, the bait; the list need not be complete.

Sequences of proteins named here, by UniProt entry; tags and fusion partners are left off. Residues count along the entry.
UniProt P35613, residues 22-385: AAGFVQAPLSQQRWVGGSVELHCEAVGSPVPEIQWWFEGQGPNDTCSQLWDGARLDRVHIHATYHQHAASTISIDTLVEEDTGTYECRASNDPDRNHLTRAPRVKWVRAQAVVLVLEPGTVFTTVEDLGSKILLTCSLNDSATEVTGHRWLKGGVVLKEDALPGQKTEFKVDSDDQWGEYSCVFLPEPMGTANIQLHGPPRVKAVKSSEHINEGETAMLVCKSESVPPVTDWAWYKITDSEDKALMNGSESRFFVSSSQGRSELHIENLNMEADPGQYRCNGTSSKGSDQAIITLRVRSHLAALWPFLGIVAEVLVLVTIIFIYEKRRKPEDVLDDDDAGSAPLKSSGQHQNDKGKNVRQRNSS

Assays:
Assay in all cases: affinity purification with mass spectrometry
SLC16A7 (human) = biological target: T1, SLC16A7 (human) (UniProt O60669)
T1 sequence: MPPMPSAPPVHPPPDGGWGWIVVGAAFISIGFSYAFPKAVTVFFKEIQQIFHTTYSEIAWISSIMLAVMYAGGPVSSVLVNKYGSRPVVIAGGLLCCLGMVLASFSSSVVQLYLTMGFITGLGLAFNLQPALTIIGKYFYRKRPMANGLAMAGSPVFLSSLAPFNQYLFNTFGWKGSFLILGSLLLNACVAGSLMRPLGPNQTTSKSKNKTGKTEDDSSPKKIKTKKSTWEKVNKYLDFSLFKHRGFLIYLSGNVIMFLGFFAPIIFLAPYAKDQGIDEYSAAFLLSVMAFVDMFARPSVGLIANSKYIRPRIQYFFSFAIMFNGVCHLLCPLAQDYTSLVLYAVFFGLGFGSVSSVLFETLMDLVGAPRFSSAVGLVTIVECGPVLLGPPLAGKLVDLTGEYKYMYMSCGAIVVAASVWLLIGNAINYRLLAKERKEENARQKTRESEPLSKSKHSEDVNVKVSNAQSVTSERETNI

SLCO1B3 (human) = biological target: T2, SLCO1B3 (human) (UniProt Q9NPD5)
T2 sequence: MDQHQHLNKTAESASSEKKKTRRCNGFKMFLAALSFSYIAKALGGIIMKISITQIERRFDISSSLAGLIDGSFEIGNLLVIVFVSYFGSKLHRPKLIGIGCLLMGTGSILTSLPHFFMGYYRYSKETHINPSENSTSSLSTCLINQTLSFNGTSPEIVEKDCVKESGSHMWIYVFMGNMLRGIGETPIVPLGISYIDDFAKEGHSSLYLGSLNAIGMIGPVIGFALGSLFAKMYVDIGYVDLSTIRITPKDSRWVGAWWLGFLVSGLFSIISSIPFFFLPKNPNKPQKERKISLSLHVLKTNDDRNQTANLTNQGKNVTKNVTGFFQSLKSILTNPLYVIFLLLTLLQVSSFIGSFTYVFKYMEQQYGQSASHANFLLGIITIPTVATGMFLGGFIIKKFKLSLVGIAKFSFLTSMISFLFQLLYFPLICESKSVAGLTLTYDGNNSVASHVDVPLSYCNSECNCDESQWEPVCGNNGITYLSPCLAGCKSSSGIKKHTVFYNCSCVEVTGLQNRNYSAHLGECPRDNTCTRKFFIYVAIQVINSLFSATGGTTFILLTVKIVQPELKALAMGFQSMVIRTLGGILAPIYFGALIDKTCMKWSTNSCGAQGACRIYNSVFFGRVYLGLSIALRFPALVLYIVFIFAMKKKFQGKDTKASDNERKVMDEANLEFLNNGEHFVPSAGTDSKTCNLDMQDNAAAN

MFSD8 (human) = biological target: T3, MFSD8 (human) (UniProt Q8NHS3)
T3 sequence: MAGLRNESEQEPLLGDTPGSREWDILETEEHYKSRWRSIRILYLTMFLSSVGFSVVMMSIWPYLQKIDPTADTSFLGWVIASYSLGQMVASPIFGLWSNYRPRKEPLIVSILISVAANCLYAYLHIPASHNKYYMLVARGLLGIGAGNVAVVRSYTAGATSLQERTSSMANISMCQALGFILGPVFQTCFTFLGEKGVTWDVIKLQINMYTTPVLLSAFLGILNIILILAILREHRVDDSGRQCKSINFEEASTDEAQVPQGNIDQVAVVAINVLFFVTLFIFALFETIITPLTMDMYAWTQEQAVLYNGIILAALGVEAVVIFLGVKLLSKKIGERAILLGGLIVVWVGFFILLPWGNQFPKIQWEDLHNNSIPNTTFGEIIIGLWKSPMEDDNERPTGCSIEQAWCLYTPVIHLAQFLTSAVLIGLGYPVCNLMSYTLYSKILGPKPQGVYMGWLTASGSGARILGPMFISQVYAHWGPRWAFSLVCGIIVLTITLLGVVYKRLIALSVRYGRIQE

SLC16A5 (human) = biological target: T4, SLC16A5 (human) (UniProt O15375)
T4 sequence: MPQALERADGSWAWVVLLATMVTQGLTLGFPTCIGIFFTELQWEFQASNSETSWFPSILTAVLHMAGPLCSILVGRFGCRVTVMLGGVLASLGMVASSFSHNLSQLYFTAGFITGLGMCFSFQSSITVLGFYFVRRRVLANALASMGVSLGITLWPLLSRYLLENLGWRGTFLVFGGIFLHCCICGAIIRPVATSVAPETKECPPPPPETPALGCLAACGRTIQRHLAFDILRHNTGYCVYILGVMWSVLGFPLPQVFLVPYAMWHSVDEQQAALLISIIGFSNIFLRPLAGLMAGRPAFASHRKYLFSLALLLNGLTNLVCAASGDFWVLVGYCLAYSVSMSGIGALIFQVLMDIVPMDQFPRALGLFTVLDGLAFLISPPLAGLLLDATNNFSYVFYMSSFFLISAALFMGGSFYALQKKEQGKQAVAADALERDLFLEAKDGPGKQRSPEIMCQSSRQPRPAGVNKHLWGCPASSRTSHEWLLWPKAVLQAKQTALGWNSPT

Measured: binding

Basigin (from UniProt P35613 22-385)
binds: all assays above
